# Source: patent US20250283871A1, “COMPOSITIONS AND METHODS FOR MODULATING THE INTERACTION BETWEEN SS18-SSX FUSION ONCOPROTEIN AND NUCLEOSOMES” (Dana-Farber Cancer Institute, Inc., priority 2020, published 2025)
# B1: SFXN4 (protein, UniProt Q6P4A7 2-337, looked up)
# Sideroflexin-4: SLEQEEETQPGRLLGRRDAVPAFIEPNVRFWITERQSFIRRFLQWTELLDPTNVFISVESIENSRQLLCTNEDVSSPASADQRIQEAWKRSLATVHPDSSNLIPKLFRPAAFLPFMAPTVFLSMTPLKGIKSVILPQVFLCAYMAAFNSINGNRSYTCKPLERSLLMAGAVASSTFLGVIPQFVQMKYGLTGPWIKRLLPVIFLVQASGMNVYMSRSLESIKGIAVMDKEGNVLGHSRIAGTKAVRETLASRIVLFGTSALIPEVFTYFFKRTQYFRKNPGSLWILKLSCTVLAMGLMVPFSFSIFPQIGQIQYCSLEEKIQSPTEETEIFYHRGV
# B2: SLC39A14 (protein, UniProt Q15043 31-492, looked up)
# Metal cation symporter ZIP14: SSLGAPAISAASFLQDLIHRYGEGDSLTLQQLKALLNHLDVGVGRGNVTQHVQGHRNLSTCFSSGDLFTAHNFSEQSRIGSSELQEFCPTILQQLDSRACTSENQENEENEQTEEGRPSAVEVWGYGLLCVTVISLCSLLGASVVPFMKKTFYKRLLLYFIALAIGTLYSNALFQLIPEAFGFNPLEDYYVSKSAVVFGGFYLFFFTEKILKILLKQKNEHHHGHSHYASESLPSKKDQEEGVMEKLQNGDLDHMIPQHCSSELDGKAPMVDEKVIVGSLSVQDLQASQSACYWLKGVRYSDIGTLAWMITLSDGLHNFIDGLAIGASFTVSVFQGISTSVAILCEEFPHELGDFVILLNAGMSIQQALFFNFLSACCCYLGLAFGILAGSHFSANWIFALAGGMFLYISLADMFPEMNEVCQEDERKGSILIPFIIQNLGLLTGFTIMVVLTMYSGQIQIG
# B3: DNA2 (protein, UniProt P51530 1-1060, looked up)
# DNA replication ATP-dependent …: MEQLNELELLMEKSFWEEAELPAELFQKKVVASFPRTVLSTGMDNRYLVLAVNTVQNKEGNCEKRLVITASQSLENKELCILRNDWCSVPVEPGDIIHLEGDCTSDTWIIDKDFGYLILYPDMLISGTSIASSIRCMRRAVLSETFRSSDPATRQMLIGTVLHEVFQKAINNSFAPEKLQELAFQTIQEIRHLKEMYRLNLSQDEIKQEVEDYLPSFCKWAGDFMHKNTSTDFPQMQLSLPSDNSKDNSTCNIEVVKPMDIEESIWSPRFGLKGKIDVTVGVKIHRGYKTKYKIMPLELKTGKESNSIEHRSQVVLYTLLSQERRADPEAGLLLYLKTGQMYPVPANHLDKRELLKLRNQMAFSLFHRISKSATRQKTQLASLPQIIEEEKTCKYCSQIGNCALYSRAVEQQMDCSSVPIVMLPKIEEETQHLKQTHLEYFSLWCLMLTLESQSKDNKKNHQNIWLMPASEMEKSGSCIGNLIRMEHVKIVCDGQYLHNFQCKHGAIPVTNLMAGDRVIVSGEERSLFALSRGYVKEINMTTVTCLLDRNLSVLPESTLFRLDQEEKNCDIDTPLGNLSKLMENTFVSKKLRDLIIDFREPQFISYLSSVLPHDAKDTVACILKGLNKPQRQAMKKVLLSKDYTLIVGMPGTGKTTTICTLVRILYACGFSVLLTSYTHSAVDNILLKLAKFKIGFLRLGQIQKVHPAIQQFTEQEICRSKSIKSLALLEELYNSQLIVATTCMGINHPIFSRKIFDFCIVDEASQISQPICLGPLFFSRRFVLVGDHQQLPPLVLNREARALGMSESLFKRLEQNKSAVVQLTVQYRMNSKIMSLSNKLTYEGKLECGSDKVANAVINLRHFKDVKLELEFYADYSDNPWLMGVFEPNNPVCFLNTDKVPAPEQVEKGGVSNVTEAKLIVFLTSIFVKAGCSPSDIGIIAPYRQQLKIINDLLARSIGMVEVNTVDKYQGRDKSIVLVSFVRSNKDGTVGELLKDWRRLNVAITRAKHKLILLGCVPSLNCYPPLEKLLNHLNSEKLIIDLPSREHESLCHILGDFQRE
# System: BAF complex subunits and histone proteins
# Experiment: Mass spectrometry proteomics of purified HA-SS18 WT and HA-SS18-SSX1 complexes (Tables 5A-5E)
# Design: species or system human
# Conditions: HEK-293T
# [1] = HA-SS18SSX1_NE_peptides (Table 5B), HA-SS18-SSX1 BAF complex purification from soluble nuclear extract
# [2] = HA-SS18WT_NE_peptides: HA-SS18 WT complexes purified from nuclear extract (NE), label = protein identified (Gene Symbol)
Molecule,Total (peptides) [1],Unique (peptides) [1],Total (peptides) [2],Unique (peptides) [2]
B1,1,1,5,5
B2,1,1,,
B3,1,1,,
